Four substances from publication PMC3104997 can be followed below.

The chains behind the UniProt entries cited, without tags or fusion partners. Where a name states a change or a piece, a line headed by the entry shows the natural chain unless it says otherwise. Residues count along the entry.
UniProt Q62433: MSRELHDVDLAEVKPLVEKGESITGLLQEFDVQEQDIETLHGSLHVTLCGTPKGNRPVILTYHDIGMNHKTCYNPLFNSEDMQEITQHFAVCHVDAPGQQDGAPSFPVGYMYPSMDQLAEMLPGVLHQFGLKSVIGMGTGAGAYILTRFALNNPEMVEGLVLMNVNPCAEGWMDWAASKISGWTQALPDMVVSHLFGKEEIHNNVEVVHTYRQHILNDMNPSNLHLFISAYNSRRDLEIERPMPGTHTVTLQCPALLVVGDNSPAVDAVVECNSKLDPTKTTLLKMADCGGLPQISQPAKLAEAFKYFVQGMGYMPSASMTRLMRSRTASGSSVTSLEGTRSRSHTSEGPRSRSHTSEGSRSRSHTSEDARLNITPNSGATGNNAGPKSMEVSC
UniProt Q9WVC6: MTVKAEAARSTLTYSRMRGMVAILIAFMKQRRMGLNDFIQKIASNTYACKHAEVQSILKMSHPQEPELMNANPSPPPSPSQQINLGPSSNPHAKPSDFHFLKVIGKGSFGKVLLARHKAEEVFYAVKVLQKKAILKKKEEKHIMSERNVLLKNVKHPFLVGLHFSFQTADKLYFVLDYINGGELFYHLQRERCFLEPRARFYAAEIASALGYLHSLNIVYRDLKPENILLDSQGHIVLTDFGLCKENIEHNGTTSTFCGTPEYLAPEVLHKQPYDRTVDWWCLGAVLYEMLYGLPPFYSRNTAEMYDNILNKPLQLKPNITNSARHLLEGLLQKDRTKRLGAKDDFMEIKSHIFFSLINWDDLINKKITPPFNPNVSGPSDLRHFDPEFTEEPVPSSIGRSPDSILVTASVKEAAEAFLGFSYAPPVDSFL
UniProt Q92597: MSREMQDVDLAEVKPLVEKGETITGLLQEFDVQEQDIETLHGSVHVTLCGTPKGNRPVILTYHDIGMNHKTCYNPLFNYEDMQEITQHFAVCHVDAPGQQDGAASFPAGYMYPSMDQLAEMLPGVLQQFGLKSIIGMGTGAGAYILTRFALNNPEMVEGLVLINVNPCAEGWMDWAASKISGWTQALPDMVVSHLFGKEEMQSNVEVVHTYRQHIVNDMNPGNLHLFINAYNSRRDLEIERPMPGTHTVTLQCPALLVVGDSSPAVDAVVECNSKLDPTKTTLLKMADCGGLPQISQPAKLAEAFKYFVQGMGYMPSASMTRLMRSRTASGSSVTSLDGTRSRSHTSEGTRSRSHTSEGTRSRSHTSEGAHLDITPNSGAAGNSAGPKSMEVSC
UniProt P15116, residues 160-906: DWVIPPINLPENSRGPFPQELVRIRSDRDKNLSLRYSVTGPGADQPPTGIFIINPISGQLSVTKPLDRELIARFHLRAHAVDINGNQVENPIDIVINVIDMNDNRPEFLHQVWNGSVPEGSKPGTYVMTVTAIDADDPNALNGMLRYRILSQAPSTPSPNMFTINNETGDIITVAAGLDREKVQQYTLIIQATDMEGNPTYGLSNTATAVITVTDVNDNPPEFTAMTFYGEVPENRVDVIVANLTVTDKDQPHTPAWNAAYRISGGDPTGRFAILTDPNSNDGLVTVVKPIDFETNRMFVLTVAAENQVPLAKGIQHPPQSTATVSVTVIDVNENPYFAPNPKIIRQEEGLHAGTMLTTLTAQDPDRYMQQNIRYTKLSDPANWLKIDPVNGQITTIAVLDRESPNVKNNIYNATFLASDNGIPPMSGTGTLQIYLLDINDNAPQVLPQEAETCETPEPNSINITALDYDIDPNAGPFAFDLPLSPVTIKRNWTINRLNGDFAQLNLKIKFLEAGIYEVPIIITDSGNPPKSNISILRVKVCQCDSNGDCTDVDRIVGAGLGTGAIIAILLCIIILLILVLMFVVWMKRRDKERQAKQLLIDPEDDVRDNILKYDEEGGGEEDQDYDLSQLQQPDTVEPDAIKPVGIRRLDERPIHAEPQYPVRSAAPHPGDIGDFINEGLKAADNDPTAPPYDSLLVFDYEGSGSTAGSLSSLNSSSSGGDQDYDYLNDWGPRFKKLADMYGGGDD
UniProt Q02248: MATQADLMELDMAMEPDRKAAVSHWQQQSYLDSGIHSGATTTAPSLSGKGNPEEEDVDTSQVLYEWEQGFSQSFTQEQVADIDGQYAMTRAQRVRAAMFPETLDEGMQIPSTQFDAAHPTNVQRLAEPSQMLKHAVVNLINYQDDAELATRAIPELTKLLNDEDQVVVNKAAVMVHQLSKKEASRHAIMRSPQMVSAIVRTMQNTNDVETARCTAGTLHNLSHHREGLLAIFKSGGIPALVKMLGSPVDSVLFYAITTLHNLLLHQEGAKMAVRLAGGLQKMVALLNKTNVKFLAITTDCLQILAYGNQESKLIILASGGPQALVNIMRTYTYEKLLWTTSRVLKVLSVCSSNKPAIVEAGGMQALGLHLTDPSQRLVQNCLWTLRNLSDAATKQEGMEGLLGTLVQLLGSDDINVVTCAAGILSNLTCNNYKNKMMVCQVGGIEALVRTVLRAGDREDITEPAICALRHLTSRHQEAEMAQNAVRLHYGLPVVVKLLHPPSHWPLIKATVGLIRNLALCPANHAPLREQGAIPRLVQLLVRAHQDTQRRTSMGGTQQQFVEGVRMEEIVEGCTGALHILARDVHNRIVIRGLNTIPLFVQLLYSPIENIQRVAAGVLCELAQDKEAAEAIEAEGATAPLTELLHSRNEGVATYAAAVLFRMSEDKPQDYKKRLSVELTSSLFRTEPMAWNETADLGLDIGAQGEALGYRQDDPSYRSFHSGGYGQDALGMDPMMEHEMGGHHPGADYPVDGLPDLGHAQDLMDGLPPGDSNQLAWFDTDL
UniProt P35222: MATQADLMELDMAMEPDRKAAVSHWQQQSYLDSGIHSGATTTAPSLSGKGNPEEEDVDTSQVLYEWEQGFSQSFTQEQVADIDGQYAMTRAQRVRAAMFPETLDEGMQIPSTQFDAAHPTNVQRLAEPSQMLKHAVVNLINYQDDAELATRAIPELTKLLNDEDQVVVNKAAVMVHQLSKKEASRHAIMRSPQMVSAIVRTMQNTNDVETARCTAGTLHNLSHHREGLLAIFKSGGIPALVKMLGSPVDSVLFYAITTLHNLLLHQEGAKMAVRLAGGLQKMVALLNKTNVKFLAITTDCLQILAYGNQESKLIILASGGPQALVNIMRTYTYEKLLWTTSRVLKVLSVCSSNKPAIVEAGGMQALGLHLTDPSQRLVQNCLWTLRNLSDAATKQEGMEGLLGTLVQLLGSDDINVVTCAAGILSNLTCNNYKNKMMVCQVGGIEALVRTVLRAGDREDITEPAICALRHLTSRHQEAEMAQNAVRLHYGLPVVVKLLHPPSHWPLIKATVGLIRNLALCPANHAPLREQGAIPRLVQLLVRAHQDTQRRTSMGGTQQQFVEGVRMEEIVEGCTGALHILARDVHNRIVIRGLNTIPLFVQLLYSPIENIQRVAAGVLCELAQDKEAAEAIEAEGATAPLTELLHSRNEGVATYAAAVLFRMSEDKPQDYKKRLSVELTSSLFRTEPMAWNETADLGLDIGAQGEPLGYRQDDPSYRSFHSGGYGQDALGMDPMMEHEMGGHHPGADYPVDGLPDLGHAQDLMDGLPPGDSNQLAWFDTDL

Assay [1] deals with N-myc downstream-regulated gene 1 (NDRG1) (mouse (endogenous in corpus callosum)) (UniProt Q62433). Put plainly: co-IP; immunoprecipitation with an NDRG1 antibody from corpus callosum lysates of normal mice and of mice after repeated WIRS; western blot for β-catenin, N-cadherin and α-catenin.
The target in assay [2] is serum glucocorticoid regulated kinase (SGK1) (mouse (endogenous in corpus callosum)) (UniProt Q9WVC6). Put plainly: co-IP; immunoprecipitates prepared with a SGK1 antibody from corpus callosum lysates of control mice and of mice after repeated WIRS (chronic stress); immunoblotted with a NDRG1 antibody.
Another assay concerns the target NDRG1-S330D (UniProt Q92597). The assay can be described thus: co-IP; immunoprecipitation and western blot from SK-N-SH cells overexpressing NDRG1-S330D (NDRG1-S330A and untransfected cells as controls).

These are yes or no findings as the source states them, for the method shown. In cells and extracts the contact can be indirect. Some entries that bind do so weakly or less than the wild type.

For the substance “N-cadherin (from UniProt P15116 160-906)”, the binding entry in assay [1] is recorded as “no binding”.
Same read-out and setting: the entry for β-catenin (from UniProt Q02248 1-781) is “binds”.
Take “N-myc downstream-regulated gene 1 (NDRG1) (from UniProt Q62433 1-394)”: the binding result in assay [2] is on record as “binds”.
Turning to “β-catenin (SK-N-SH cells) (from UniProt P35222 1-781)”, in the assay with NDRG1-S330D, the binding result was “binds”.
